Measured values as given in patent US12610947B2, “Tobacco axillary bud growth inhibitors and methods of inhibiting growth of tobacco axillary buds” (Drexel Chemical Company, priority 2020, dated 2026).
Some results were stated once for a whole list of compounds, not compound by compound.

System: axillary shoots of TH241 tobacco
Assay: Example 3 plot study: axillary shoot length and effectiveness vs non-treated control
Assay type: in vivo
Conditions: consistently, despite three applications
Experimental: A third study was conducted comparing the effects of various treatment compositions on TH241 tobacco. The study was designed in random blocks. Each test plot was formed by two rows of ten tobacco plants. Each treatment was applied to three separate plots. […] The first application was performed when the first axillary shoots were observed. Additional applications were performed when new axillary shoots were observed. Shoots longer than 3 cm were manually removed at the time of each application. The applications were performed using a manual backpack sprayer, spraying at a low pressure above the plant toward the stalk so that the composition ran down the stalk, contacting the leaf axils. Approximately 13 to 26 milliliters of composition were applied to each plant. The phytotoxicity of the treatment compositions was assessed and recorded on a scale of 0 to 5 based on visible symptoms. The number and size of the axil shoots was recorded every 7 to 14 days following the initial treatment application. Axillary shoots were assigned a level according to their length. Shoots less than 3 cm in length were assigned to level 1. […] An estimated average length of shoots in each plot could then be calculated according to the number of shoots assigned to each level. […] The effectiveness of each treatment method was calculated as compared to the non-treated control group.

In the case of `CCCCCCCCC(=O)O` [Pelargonic acid, pelargonic acid], the effectiveness is reported as “below 80%”.
